Assay results from doi:10.1101/689596.

Target: T1, MBP-RIC-3-His6 (human) (UniProt Q7Z5B4)
T1 sequence: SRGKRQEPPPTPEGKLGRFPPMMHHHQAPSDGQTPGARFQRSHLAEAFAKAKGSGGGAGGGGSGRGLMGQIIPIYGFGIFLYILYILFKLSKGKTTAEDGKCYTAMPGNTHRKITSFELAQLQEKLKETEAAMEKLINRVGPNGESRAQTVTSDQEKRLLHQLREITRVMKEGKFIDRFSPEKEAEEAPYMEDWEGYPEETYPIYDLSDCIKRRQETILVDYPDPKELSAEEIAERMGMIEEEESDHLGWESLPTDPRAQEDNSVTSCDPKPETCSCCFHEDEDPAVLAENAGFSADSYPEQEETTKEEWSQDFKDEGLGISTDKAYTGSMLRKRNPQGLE
Assay: pull-down

Substance | binding
MBP-Δ34 (mouse) (domain or fragment) | binds
MBP-Δ55 (mouse) (domain or fragment) | binds

Results are given in words; binding and its absence hold for the method and conditions named. A result given as binding can be weak or reduced; the word gives no strength. Tags and fused reporters may be left off the sequences shown.
